In brackets after ≈: the same amount, converted by molar mass.
Assay: physchem
Conditions: buffer, pH 1.6

CCN1CCN(Cc2ccc3cc(C(=O)Nc4cc(NC(=O)c5ccc6c(c5)OCCO6)ccc4F)ccc3n2)CC1
solubility thermodynamic at 4 h: 920 µg/mL (≈ 1620 µM)

Source: ChEMBL document CHEMBL5352500, “HSF1 Pathway Inhibitor Clinical Candidate (CCT361814/NXP800) Developed from a Phenotypic Screen as a Potential Treatment for Refractory Ovarian Cancer and Other Malignancies” (J Med Chem, 2023)
